# Source: patent US20240264164A1, “DETERGENTS AND METHODS” (OXFORD UNIVERSITY INNOVATION LIMITED, priority 2021, published 2024)
# Test system: TSPO, AmtB and AqpZ membrane proteins (protein-phospholipid complexes)
# Test: Phospholipid delipidation at low detergent concentration, nESI mass spectrometry
# Details: detergent exchange from DDM, 2×CAC of detergent, nESI MS
smiles,measurement,value
CCCCCCCCCCCCOC(COCCOCCOCCOCCO)COCC(O)CO (centres unmarked) [detergent 3],degree of phospholipid delipidation of membrane proteins,less delipidating towards phospholipids than detergent 1
CCCCCCCCCCCCOC(COCCOCCOCCOCCO)COCCOC1OC(CO)C(O)C(O)C1O (centres unmarked) [detergent 5],degree of phospholipid delipidation of membrane proteins,less delipidating towards phospholipids than either OG or C8E4
